PubChem BioAssay AID504834 (National Center for Advancing Translational Sciences (NCATS), 2011)
Among all 320,000 compounds or so, about 22,000 (6.9%) were called active. This list was built around the results that the source calls inconclusive (neither active nor inactive); the mix of calls is not that of the screen. Calls follow the shape of the dose curve; as a rule, active = well fitted inhibition curve with a large enough effect; inconclusive = small, poorly fitted or top-dose-only effect, or another doubt; inactive = no such curve, though single readings can be large or run the other way. Potencies of inconclusive entries are doubtful fits and often do not repeat.

assay: Primary qHTS for delayed death inhibitors of the malarial parasite plastid, 96 hour incubation; conditions: P. falciparum luciferase reporter growth; series mostly up to 28.7 µM; activity change, negative = inhibition: at the top concentration
Outline: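 Delayed-death screen, second-generation endpoint: infected erythrocytes, 2% hematocrit, 0.05% parasitemia final; 96 hours at 37 C, 5% CO2; luciferase detection reagent; luminescence decrease equals reduced growth.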
% is scaled to controls: 0 for no effect and ±100 for the full control effect; potency is read from the fitted curve at half-maximal effect.

SMILES | activity change, negative = inhibition | Potency
CC(NC(=O)/C(C#N)=C/c1cccs1)c1ccccc1 (stereo unspecified) | inactive: 26.8% | –
NC(=O)CSc1nnc(-c2ccc(S(=O)(=O)N3CCCC3)cc2)o1 | – | inconclusive: 10.4 µM [inhibitor, single point]
COc1ccc(CNC(=O)Cn2ccc([N+](=O)[O-])n2)cc1OC | – | inconclusive: 2.08 µM [inhibitor, full curve]
CN(C(=O)CSc1nnc(-c2ccc(C(C)(C)C)cc2)n1C)C1CCS(=O)(=O)C1 (stereo unspecified) | – | inconclusive: 11.7 µM [inhibitor, single point]
Nc1nc(NC(=O)Cc2ccccc2)nn1-c1ccccc1 | inactive: 32% | –
CCOC(=O)c1c(NC(=O)CS(=O)(=O)c2cn(CC)c3ccccc23)sc2c1CCCCC2 | – | inconclusive: 18.5 µM [inhibitor, single point]
c1ccc2c(c1)[nH]c1nc(SCCN3CCOCC3)nnc12 | – | inconclusive: 11.7 µM [inhibitor, single point]
O=C(Oc1cc(-c2ccccc2)no1)c1ccc(F)cc1 | – | inconclusive: 14.7 µM [inhibitor, single point]
N#C/C(=C\c1ccccc1[N+](=O)[O-])C(=O)NC1CCCCC1 | – | inconclusive: 9.28 µM [inhibitor, partial curve]
CC(=O)Oc1ccc2nc(-c3ccc(Br)o3)oc(=O)c2c1 | inactive: 107% | –
CCC(NC(=O)NC1=NCCS1)(C(F)(F)F)C(F)(F)F | – | active: 0.208 µM
COc1ccc(N=c2oc3ccc(OC)cc3cc2-c2nc3ccccc3[nH]2)cc1 | inactive: 17.2% | –
COc1cccc(CC2(CO)CCN(S(=O)(=O)c3ccc(OC)cc3OC)CC2)c1 | inactive: 302% | –
CCc1nnc(NC(=O)CCS(=O)(=O)c2ccccc2)s1 | inactive: 1.71% | –
Fc1cnc(N2CCN(c3ccccc3)CC2)nc1N1CCN(c2ccccc2)CC1 | inactive: 0.473% | –
COc1cc(C(=O)OCC(=O)Nc2cccc(S(=O)(=O)N3CCCC3)c2)ccc1OCC(C)C | – | inconclusive: 14.7 µM [inhibitor, partial curve, poor fit]
O=C(NCC(=O)N1CCN(S(=O)(=O)c2cccs2)CC1)c1ccc(Cl)cc1 | – | inconclusive: 7.38 µM [inhibitor, partial curve, poor fit]
COc1ccc(C(C)(C)C)cc1S(=O)(=O)N1CCN(C)CC1 | inactive: 0.759% | –
CC1=NN(c2ccc(C(=O)O)cc2)C(=O)CC1 | inactive: 2.54% | –
CCOC(=O)Nc1n[nH]c(NC(=O)OCC)c1[N+](=O)[O-] | – | inconclusive: 13.1 µM [inhibitor, single point]
Cc1ccnc(NS(=O)(=O)c2ccc(NC(=O)C3COc4ccccc4O3)cc2)n1 (stereo unspecified) | inactive: 31.5% | –

Three of these compounds in a different format.
SMILES,"activity change, negative = inhibition",Potency
CCOC(=O)c1c(NC(=O)CS(=O)(=O)c2cn(CC)c3ccccc23)sc2c1CCCCC2,–,"inconclusive: 18.5 µM [inhibitor, single point]"
Fc1cnc(N2CCN(c3ccccc3)CC2)nc1N1CCN(c2ccccc2)CC1,inactive: 0.473%,–
CCOC(=O)Nc1n[nH]c(NC(=O)OCC)c1[N+](=O)[O-],–,"inconclusive: 13.1 µM [inhibitor, single point]"
